{"source": "paper PMC4791640", "molecular_target": "TON_1525(T55I) (Thermococcus onnurineus NA1 (156T mutation)) (UniProt B6YTS4)", "experiment": "EMSA", "conditions": "80 C, 10 min, affinity less than wild type, competition EMSA; EMSA: 100 nM DNA, 20 mM Tris-HCl, 200 mM KCl, 1 mM EDTA, 5% glycerol, pH 7.5, 80 C for 10 min; 5% native PAGE; recombinant protein; residues 1-146; protein details: TALON-purified (His tag implied); label: FAM (forward primer named labeled_FAM); probe letters rebuilt from the primers and the genome", "note": "Construct, isoform or probe ends are uncertain for at least one entry. The comparison behind a weaker result is the experiment's own reference, which may not be listed here."}
{"sequence": "GAGAGTTTTACTGTCTCTAAATGAAAGGTTCTAATACGGTGGATCGAATAATTTCTTGCGTTTTTATCCGGATCGCCGAACACGATTCCATCTTAAAATCTTTTTGTTTACATTATACGAGGTGATCAACAATGCCAGCTTTTTCCGGTT (double strand) [CODH promoter 150-bp probe]", "values": [{"measurement": "binding result", "value": "binds more weakly"}]}
